In article PMC5796268, “Affinity Purification and Comparative Biosensor Analysis of Citrulline-Peptide-Specific Antibodies in Rheumatoid Arthritis” (International Journal of Molecular Sciences, 2018):

What was measured:
[1] = test system: serum IgG from RA patients; experiment: SPR, RA serum IgG on biotinylated peptides on neutravidin-coated NLC chip; format: binding, human
[2] = test system: autoantibodies (ACPA) in RA serum samples; details: in house Cit-peptide ELISA, RA sera; cited from earlier work
[3] = test system: autoantibodies (ACPA) in RA serum samples; experiment: ELISA screening of RA and healthy sera with Cit-/Arg-peptides; format: binding, human
[4] = test system: serum antibodies from RA patients; experiment: SPR, RA serum antibodies on Cit-peptides covalently immobilized on GLH chip; format: binding, human; details: chip not stated (abstract)

In the case of “H-XPAPPPISGGGYXAX-NH2 [Fibrin β (60–74)]”, the “proportion of selected RA sera bound to the biotinylated peptide” value (from here on “proportion of selected RA sera bound”) [1] is listed as 60% and the “sensitivity values for previously tested Cit-peptides” value (“sensitivity values” for short) [2] is listed as 56%.

In the case of “Ac-SAVRAXSSVPGVRK-NH2 [Vimentin (65–77)]”, the “sensitivity values” value [2] is given as 41%.

With “Ac-KIHAXEIFDSXGNPTVE-NH2 [α-enolase (5–21)]” the “sensitivity of autoantibody detection in RA serum samples” value ([3]; OD index Cit-/Arg-peptide, RA n = 177, healthy n = 104, peptides coated directly) was 27%.

In the case of “Ac-AXGLTGXPGDA-NH2 [Collagen II (359–369)]”, the “proportion of selected RA sera bound” value [1] is given as 31% and the “sensitivity values” value [2] is given as 44%.

For “H-Ttds-AXAXGSGSGXGXG-NH2 [multi-epitope, novel peptide consisting of two-two copies of Ala-Cit and Cit-Gly motifs separated with a neutral spacer, SGSG]”, the “healthy samples recognizing the peptide in SPR” value [4] was “none of the healthy samples”, the “proportion of selected RA sera bound” value [1] was 53% and the “sensitivity of ACPA identification in RA serum samples” value ([3]; biotinylated Cit-/Arg-multi-epitope peptide coat, RA n = 210, healthy n = 90) was 66%. For the same substance, the “ROC curve area under the curve (AUC)” value ([3]; multi-epitope peptide, RA n = 210, healthy n = 90) was 0.7843.

In the case of “Ac-SHQESTXGXSXGRSGRSGSK-NH2 [Filaggrin (306–326)]”, the “sensitivity values” value [2] is listed as 62%.
